PubChem BioAssay AID504793 | Drosophila RNAi Screening Center, 2011

Aim: 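Genes required for cells to halt at G2/M after double-strand DNA breaks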 (primary screen)
System: Drosophila S2R+ cells
Reagent: long dsRNA against Drosophila genes, about 0.25 µg dsRNA per well
Duration: 4 days of dsRNA, then 4 hours of drug before read-out
Challenge: doxorubicin 0.5 µM for 4 hours to cause double-strand breaks, in cells also given a low, harmless dose of dsRNA against nbs to sensitise the assay
Read-out: 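Per-well count of mitotic cells stained for phospho-histone H3 after doxorubicin exposure, used as mitotic index; counts are raw and not normalised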
Direction: mitotic cells: higher = more cells in mitosis, weaker G2 arrest
Call rule: 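a call needs confirmation in secondary tests, with other dsRNAs and a check of mitotic timing without damage, not just a high primary count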
Calls: active = confirmed in follow-up tests; inactive = not confirmed
In all, the deposit lists about 23,000 reagents; shown is a random part of those with a known target gene and a result. Of all reagents, 62 (0.27%) were called active. 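Calls come from follow-up tests whose scores are not deposited, so confirmed genes may have low counts here; counts are not normalised per plate.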 Raw values are not corrected between plates. Reagents against one gene are numbered here. Names joined by + are all predicted targets of the reagent.

The opening 2 entries, ahead of the listing:
| target | reagent no. | mitotic cells, replicate 1 | mitotic cells, replicate 2 | outcome |
| --- | --- | --- | --- | --- |
| Alg11 | 1 | 3 | – | inactive |
| Tengl1 | 1 | 1 | – | inactive |

The listing, repeating the preview:
| target | reagent no. | mitotic cells, replicate 1 | mitotic cells, replicate 2 | outcome |
| --- | --- | --- | --- | --- |
| Alg11 | 1 | 3 | – | inactive |
| Tengl1 | 1 | 1 | – | inactive |
| CG1468 | 1 | 7 | – | inactive |
| CG1468 | 2 | 8 | – | inactive |
| CG18449 | 1 | 6 | – | inactive |
| CG17327 | 1 | 9 | – | inactive |
| Elk | 1 | 5 | – | inactive |
| Fer1 | 1 | 8 | – | inactive |
| Fer1 | 2 | 4 | – | inactive |
| Fer1 | 3 | 10 | – | inactive |
| Jhbp3 | 1 | 5 | – | inactive |
| CG10802 | 1 | 6 | – | inactive |
| CG10802 | 2 | 5 | – | inactive |
| Ugt36E1 | 1 | 8 | – | inactive |
| uno | 1 | 5 | – | inactive |
| uno | 2 | 5 | – | inactive |
| CG30274 | 1 | 1 | – | inactive |
| CG30274 | 2 | 8 | – | inactive |
| Cyp4e3 | 1 | 6 | – | inactive |
| Cyp4e3 | 2 | 9 | – | inactive |
| Oatp58Dc | 1 | 5 | – | inactive |
| Oatp58Dc | 2 | 8 | – | inactive |
| Oli | 1 | 7 | – | inactive |
| Oli | 2 | 4 | – | inactive |
| nAChRalpha2 | 1 | 7 | – | inactive |
| nAChRalpha2 | 2 | 5 | – | inactive |
| tsu | 1 | 5 | – | inactive |
| mbm + CG11555 | 1 | 5 | – | inactive |
| CG18789 | 1 | 2 | – | inactive |
| CG10512 | 1 | 5 | – | inactive |
| CG10512 | 2 | 3 | – | inactive |
| disp | 1 | 3 | – | inactive |
| CG15923 | 1 | 6 | – | inactive |
| Orc4 | 1 | 7 | – | inactive |
| Orc4 | 2 | 4 | – | inactive |
| Cdk9 | 1 | 8 | – | inactive |
| CG30109 + CG30108 | 1 | 1 | – | inactive |
| CG30430 | 1 | 12 | – | inactive |
| CG18735 | 1 | 9 | – | inactive |
| CG18735 | 2 | 4 | – | inactive |
| CG31388 | 1 | 7 | – | inactive |
| He | 1 | 9 | – | inactive |
| CG5225 | 1 | 15 | – | inactive |
| CkIIalpha-i3 | 1 | 4 | – | inactive |
| CG31784 | 1 | 1 | – | inactive |
| SoxN | 1 | 14 | – | inactive |
| SoxN | 2 | – | – | inactive |
| ems | 1 | 6 | – | inactive |
| RpS2 | 1 | 3 | – | inactive |
| RpS2 | 2 | 9 | – | inactive |
| CG2258 | 1 | 7 | – | inactive |
| CG2258 | 2 | 3 | – | inactive |
| Gprk2 | 1 | 7 | – | inactive |
| Gprk2 | 2 | 17 | – | inactive |
| CG2310 | 1 | 14 | – | inactive |
| Atg14 | 1 | 4 | – | inactive |
| Atg14 | 2 | 6 | – | inactive |
| CG16894 | 1 | 15 | – | inactive |
| CG16894 | 2 | 8 | – | inactive |
| CG16775 | 1 | 4 | – | inactive |
| CG7900 | 1 | 9 | – | inactive |
| CG7900 | 2 | 11 | – | inactive |
| Idh3a | 1 | 4 | – | inactive |
| Idh3a | 2 | 11 | – | inactive |
| tay | 1 | 7 | – | inactive |
| CG13318 | 1 | 5 | – | inactive |
| mTTF | 1 | 7 | – | inactive |
| CG31370 | 1 | 12 | – | inactive |
| luna | 1 | 5 | – | inactive |
| luna | 2 | 8 | – | inactive |
| BNIP3 | 1 | 5 | – | inactive |
| trsn | 1 | 6 | – | inactive |
| CG13678 | 1 | 7 | – | inactive |
| pb | 1 | 13 | – | inactive |
| pb | 2 | 5 | – | inactive |
| pb | 3 | 8 | – | inactive |
| CG14767 | 1 | 7 | – | inactive |
| CG14767 | 2 | 9 | – | inactive |
| ssp3 | 1 | 11 | – | inactive |
| ssp3 | 2 | 1 | – | inactive |
| ssp3 | 3 | 7 | – | inactive |
| CG8360 | 1 | 11 | – | inactive |
| CG8360 | 2 | 9 | – | inactive |
| Obp99a | 1 | 9 | – | inactive |
| JYalpha | 1 | 13 | – | inactive |
| Pkg21D | 1 | 2 | – | inactive |
| Pkg21D | 2 | 4 | – | inactive |
| CG6665 | 1 | 7 | – | inactive |
| CG15344 (retired record) | 1 | 15 | – | inactive |
| CG34041 | 1 | 14 | – | inactive |
| CG34041 | 2 | 11 | – | inactive |
| CG5614 | 1 | 3 | 8 | inactive |
| fd3F (retired record) | 1 | 17 | – | inactive |
| CG13589 | 1 | 5 | – | inactive |
| CG13589 | 2 | 3 | – | inactive |
| sp3 | 1 | 6 | – | inactive |
| Tim17b2 | 1 | 5 | – | inactive |
| Tim17b2 | 2 | 3 | – | inactive |
| CG30271 | 1 | 5 | – | inactive |
| CG30271 | 2 | 4 | – | inactive |
| Sardh | 1 | 4 | – | inactive |
| CG34284 | 1 | 14 | – | inactive |
| Adar | 1 | 19 | – | inactive |
| Pss | 1 | 4 | – | inactive |
| Gr36b | 1 | 2 | – | inactive |
| Gr36b | 2 | – | – | inactive |
| grp + CG31782 (retired record) | 1 | 46 | – | active |
| CG6040 | 1 | 7 | – | inactive |
| CG6040 | 2 | 5 | – | inactive |
| Muc26B | 1 | 4 | – | inactive |
| Muc26B | 2 | 4 | – | inactive |
| PGRP-SA | 1 | 10 | – | inactive |
| wol | 1 | 6 | – | inactive |
| wol | 2 | 10 | – | inactive |
| CG10209 | 1 | 6 | – | inactive |
| Smyd4-3 | 1 | 5 | – | inactive |
| Smyd4-3 | 2 | 9 | – | inactive |
| Ostgamma | 1 | 10 | – | inactive |
| nmdyn-D7 | 1 | 5 | – | inactive |
| CG5196 | 1 | 8 | – | inactive |
| CG5196 | 2 | 6 | – | inactive |
| CLS | 1 | 13 | – | inactive |
| CLS | 2 | 10 | – | inactive |
| CG17233 | 1 | 2 | – | inactive |
| RhoGAP68F | 1 | 8 | – | inactive |
| Got1 | 1 | 2 | – | inactive |
| Got1 | 2 | 4 | – | inactive |
| CG18294 | 1 | 2 | – | inactive |
| Phax | 1 | 8 | – | inactive |
| LBR | 1 | 10 | – | inactive |
| LBR | 2 | 5 | – | inactive |
| Gr64b | 1 | 2 | – | inactive |
| CG18130 | 1 | 11 | – | inactive |
| CG18130 | 2 | 6 | – | inactive |
| CG6830 | 1 | 3 | – | inactive |
| CG6830 | 2 | 6 | – | inactive |
| CG11382 | 1 | 8 | – | inactive |
| Phf7 | 1 | 4 | – | inactive |
| CG31760 | 1 | 4 | – | inactive |
| CG31760 | 2 | 2 | – | inactive |
